Assay results from the supplement of paper PMC10338343.
± gives the standard deviation. Only a part is listed here, and it is no random draw. Many entries were measured with a wide error.

Experiments:
[1] = tested on: MIWI (PIWIL1) piRISC loaded with L1MC piRNA (30 nt); test: pre-steady-state target cleavage rate (min^-1); MIWI and MILI are mouse PIWI proteins and EfPiwi is from a freshwater sponge; tags in brackets are library labels; higher = faster piRNA-guided slicing of the target; conditions: guide: L1MC piRNA 5'p-UAACUAAAUACUAUGCAAGCUGUAGGUCCU
Summary of the method: (§1)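 Active affinity-purified piRISC carrying one synthetic guide (1 nM) was mixed with a transcribed, DNA-blocked target RNA library […] in HEPES–potassium acetate buffer at 33 °C for 0–8 or 0–960 min, with or without 500 nM GTSF1 partner protein. Uncleaved targets were then sequenced and normalised to depth and to weakly complementary targets. Three trials were pooled, and k3 was capped at 0.0001 min^-1. A burst-and-steady-state fit was applied to obtain the pre-steady-state cleavage rate.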

[2] = tested on: MIWI (PIWIL1) piRISC loaded with piRNA #1 (30 nt); test: as above; conditions: guide: piRNA #1 5'p-UGAGGUAGUAGGUUGUAUAGUAUCCAGAGG; auxiliary factor: 500 nM mouse GTSF1
Summary of the method: as §1

[3] = auxiliary factor: 500 nM mouse GTSF1
[4] = auxiliary factor: none (no GTSF1)
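Further: 1 nM active piRISC with 0.1 nM target library at 33 °C single turnover.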

| Sequence | pre-steady-state target cleavage rate [1, 3] | pre-steady-state target cleavage rate [1, 4] | pre-steady-state target cleavage rate [2] |
| --- | --- | --- | --- |
| ACGACCUACAGCUUGGAUAGUAUUUAGUUA | 1.68 ± 0.067 | 0.0728 ± 0.011 |  |
| AGGACCUACUGCUUCCAUAGUAUUUAGUUA | 0.069 ± 0.011 | 0.00657 ± 0.0012 |  |
| AGGACGUACAGCUUGCAUAGUAUUUAGAAA | 0.432 ± 0.06 | 0.0172 ± 0.0052 |  |
| UGGACCUACAGCUUGCAUACAAUUUAGAAA | 0.00256 ± 0.004 | 0.000913 ± 0.0046 |  |
| UCCACCUACAGCUUGCUUAGUAUUUAGUUA | 1.16 ± 0.05 | 0.0305 ± 0.0053 |  |
| UGGACCUACAGCAUGGAUAGUAUUUAGUUA | 1.47 ± 0.1 | 0.0301 ± 0.0054 |  |
| UGGACCUACAGCUUGCAUAGUAUUUAGUA | 0.885 ± 0.062 | 0.0273 ± 0.0069 |  |
| AGGACCUUACAGCUUGCAUAGUAUUUAGUUA | 1.33 ± 0.06 | 0.0925 ± 0.016 |  |
| UCGACCUACAGCUUGCAUAGUAUUUAGCUUA | 0.375 ± 0.05 | 0.0283 ± 0.0087 |  |
| AGGACCUACAGCUUGGCAUAGUAUUUAGUUA | 1.17 ± 0.17 | 0.0407 ± 0.0099 |  |
| UGGACGUACAGCUUGCUUAGUAUUUAGUUA | 1.37 ± 0.069 | 0.0454 ± 0.0082 |  |
| UCGACCUACAGCUUGCUAUGUAUUUUCAAA | 0.00299 ± 0.0043 | 0.000401 ± 0.012 |  |
| UCCUGGAUGUCGAUGCAUAGUAUUUAGUAA | 0.00302 ± 0.004 | 0.00107 ± 0.0044 |  |
| AGGACCUACAGCUUGGAUAGUAUUUAGAUA | 0.527 ± 0.057 | 0.0218 ± 0.0053 |  |
| UCCACGUACAGCUUGCAAAGUAUUUAGUUA | 1.19 ± 0.054 | 0.0439 ± 0.009 |  |
| UCCUGGAUGUCGAACCAUACAAUUUAGUUA | 0.000215 ± 0.015 | 0.000197 ± 0.022 |  |
| ACGACCUACAGCUAGCAUAGUAUUUAGUUA | 1.3 ± 0.052 | 0.0406 ± 0.0091 |  |
| UCCACCUUACAGCUUGCAUAGUAUUUAGUUA | 1.03 ± 0.043 | 0.0654 ± 0.013 |  |
| UGGACCUCCAGCUUGCAUAGUAUUUAGUUA | 1.39 ± 0.054 | 0.08 ± 0.014 |  |
| AGGACCUACAGGUAGCAUAGUAUUUAGUUA | 1.04 ± 0.054 | 0.00995 ± 0.0022 |  |
| UCCUGGAUCAGCUUGCAUAGUAUUAUGUAA | 0.0189 ± 0.0065 | 0.00377 ± 0.0026 |  |
| UGCUCCUACAGCUUGCAUAGUAUUUAGUAA | 1.07 ± 0.045 | 0.0382 ± 0.0079 |  |

4 successive records out of the list so far:

| Sequence | pre-steady-state target cleavage rate [1, 3] | pre-steady-state target cleavage rate [1, 4] | pre-steady-state target cleavage rate [2] |
| --- | --- | --- | --- |
| UCCACCUACAGCUUGCUUAGUAUUUAGUUA | 1.16 ± 0.05 | 0.0305 ± 0.0053 |  |
| UGGACCUACAGCAUGGAUAGUAUUUAGUUA | 1.47 ± 0.1 | 0.0301 ± 0.0054 |  |
| UGGACCUACAGCUUGCAUAGUAUUUAGUA | 0.885 ± 0.062 | 0.0273 ± 0.0069 |  |
| AGGACCUUACAGCUUGCAUAGUAUUUAGUUA | 1.33 ± 0.06 | 0.0925 ± 0.016 |  |

Additional entries follow:

| Sequence | pre-steady-state target cleavage rate [1, 3] | pre-steady-state target cleavage rate [1, 4] | pre-steady-state target cleavage rate [2] |
| --- | --- | --- | --- |
| UGGACCAACAGCUUCCAUAGUAUUUAGUUA | 0.0364 ± 0.0068 | 0.00383 ± 0.0016 |  |
| AGCACCUAGAGCUUGCAUAGUAUUUAGUUA | 1.47 ± 0.37 | 0.00468 ± 0.0035 |  |
| AGGACCUACAGCUAGCAUAGUAUUUAGUAA | 0.836 ± 0.073 | 0.0193 ± 0.0066 |  |
| UGGACGUACAGCUUGCAUAGUAAUUAGUUA | 0.725 ± 0.048 | 0.0371 ± 0.0089 |  |
| AGGACCUUCAGCUUCCAUAGUAUUUAGUUA | 0.101 ± 0.023 | 0.00546 ± 0.0024 |  |
| UCCACGUACAGCUUGCAUAGAAUUUAGUUA | 0.412 ± 0.022 | 0.0297 ± 0.0084 |  |
| UGGACCUACAGCUUGCAUAGUAUUAAGUUA | 0.719 ± 0.06 | 0.0363 ± 0.006 |  |
| UCCUGGAUGUCGAUGCUUAGUAUUUAGUUA | 0.000734 ± 0.014 | 0.000784 ± 0.0079 |  |
| UCCACCUACAGCUUGCUUAGUAUUAAGUUA | 0.31 ± 0.03 | 0.00763 ± 0.0016 |  |
| GGAGACCUAUGAUAUGUUGCUACUAGGACA |  |  | 0.000188 ± 0.018 |
| UGGACCUACAGCUUGCUUACUAUUUAGUUA | 0.493 ± 0.031 | 0.0127 ± 0.0038 |  |
| UCCACCUACACCUUGCAUAGUAUUUACAAA | 0.309 ± 0.053 | 0.00355 ± 0.0022 |  |
| GGUCUGGAUACUAUAGAACCUACUACCACA |  |  | 0.0228 ± 0.0058 |
| UCCACCUACAGCUUGCAUAGUAUUUAGUUA [g2:g27:cont:t1A] | 0.987 ± 0.051 | 0.0744 ± 0.015 |  |
| UCCUGGAUGUCCUUGCAUAGAUUUUAGUUA | 0.00312 ± 0.0046 | 0.00136 ± 0.0041 |  |
| UCGACGUACAGCUUGCUUAGUAUUUAGUUA | 1.63 ± 0.09 | 0.0366 ± 0.0073 |  |
| UGGACCUACAGCUUCGUUAGUAUUUUCAAA | 0.000805 ± 0.0076 | 0.000617 ± 0.0084 |  |
| UCGACCUAGAGCUUGCUUAGUAUUUAGUUA | 1.34 ± 0.048 | 0.0282 ± 0.0063 |  |
| UCGAGCCUACAGCUUGCAUAGUAUUUAGUUA | 1.46 ± 0.074 | 0.0844 ± 0.016 |  |
| UGGACCUACAGCUUGCAUAGAUUUAGUUA | 0.00309 ± 0.0038 | 0.0013 ± 0.0042 |  |
| UGGACCUACAACUUGCAUAGUAUUUAGUUA | 1.5 ± 0.062 | 0.08 ± 0.013 |  |
| UGGACCUACAGCUUGCAAUCUAUUUUCAAA | 0.00162 ± 0.005 | 0.000276 ± 0.0099 |  |

| Sequence | pre-steady-state target cleavage rate [1, 3] | pre-steady-state target cleavage rate [1, 4] | pre-steady-state target cleavage rate [2] |
| --- | --- | --- | --- |
| UGGACCUACAGCUUGCAAUAGUAUUUAGUUA | 0.0655 ± 0.011 | 0.00192 ± 0.0039 |  |
| AGGACCUACAGCUUUGCAUAGUAUUUAGUUA | 1.2 ± 0.066 | 0.0552 ± 0.012 |  |
| UGGACCUACAGCUUGCAUAGUUUUUACUUA | 0.0927 ± 0.013 | 0.0125 ± 0.0027 |  |
| AGGACCUACAGCUUGCAUAGUAAAAACAAA | 0.268 ± 0.068 | 0.00112 ± 0.0069 |  |
| UCGAGCUACAGCUUGCAUAGUAUUUAGAUA | 0.443 ± 0.041 | 0.0206 ± 0.0046 |  |
| UCGACCUACAGCCUUGCAUAGUAUUUAGUUA | 1.28 ± 0.046 | 0.0668 ± 0.014 |  |
| AGCAGCUACAGCUUGCAUAGUAUUUAGUUA | 1.37 ± 0.067 | 0.079 ± 0.016 |  |
| UCCUGGUUGUGCUUGCAUAGUAUUUAGUUA | 0.584 ± 0.032 | 0.0455 ± 0.0097 |  |
| UGGACCUACAGCUUGCAUAGUAUUUCAGUUA | 0.468 ± 0.06 | 0.0318 ± 0.0065 |  |
| GCUCUGGAUACUAUUCAACCUACAACCUCA |  |  | 1.3 ± 0.099 |
| AGACCUACAGCUUGCAUAGUAUUUAGUUA | 1.46 ± 0.052 | 0.0902 ± 0.017 |  |
| UGGACCUACAGCUUGCUAUGUAUUUUCAAA | 0.00146 ± 0.0061 | 0.000207 ± 0.011 |  |
| GGAGACGAUACUAUACAACCUAUACCUCA |  |  | 0.0012 ± 0.0061 |
| GGAGACCUAUGAUAACAACCUACUACACUCA |  |  | 0.00193 ± 0.0034 |
| UGGAACCUACAGCUUGCAUAGUAUUUAGUUA | 1.41 ± 0.1 | 0.0747 ± 0.016 |  |
| CCUGCUGGAUACUAUACAACCUACUACCUCA |  |  | 2.06 ± 0.12 |
| UCCACCUACACCUUGCAUAGUAUAUAGUUA | 0.543 ± 0.068 | 0.025 ± 0.0054 |  |
| GGAGAGGUUACUAAACAACCUACUACCUCA |  |  | 1.21 ± 0.08 |
| UCCACCUUGUGCUUGCAUAGUAUUUACAAA | 0.0809 ± 0.013 | 0.00196 ± 0.0022 |  |
| UCGACCUACAGGUUGCAAAGUAUUUAGUUA | 1.33 ± 0.054 | 0.0193 ± 0.0046 |  |
| GCACUGGUUACUAUACAACCUACUACCUCA |  |  | 1.84 ± 0.11 |
